Measured values: article doi:10.1101/2022.11.10.515925 (bioRxiv, 2022)

Biological target: β-tubulin (in the porcine brain microtubule) (porcine)
Assay: cryo-EM structure

- binding: binds
B1: KIF20A 1-565 (full-length motor domain, monomeric construct) (domain or fragment, UniProt P97329 1-565)
chain: MSHRILSPPAGLLSDEDVVDSPILESTAADLRSVVRKDLLSDCSVISASLEDKQALLEDTSEKVKVYLRIRPFLTSELDRQEDQGCVCIENTETLVLQAPKDSFALKSNERGVGQATHKFTFSQIFGPEVGQVAFFNLTMKEMVKDVLKGQNWLIYTYGVTNSGKTYTIQGTSKDAGILPQSLALIFNSLQGQLHPTPDLKPLLSNEVIWLDSKQIRQEEMKKLSLLIGGLQEEELSTSVKKRVHTESRIGASNSFDSGVAGLSSTSQFTSSSQLDETSQLWAQPDTVPVSVPADIRFSVWISFFEIYNELLYDLLEPPSHQHKRQTLRLCEDQNGNPYVKDLNWIHVRDVEEAWKLLKVGRKNQSFASTHMNQQSSRSHSIFSIRILHLQGEGDIVPKISELSLCDLAGSERCKHQKSGERLKEAGNINTSLHTLGRCIAALRQNQQNRSKQNLIPFRDSKLTRVFQGFFTGRGRSCMIVNVNPCASTYDETLHAAKFSALASQLVHAPPVHLGIPSLHSFIKKHSPQVGPGLEKEDKADSDLEDSPEDEADVSVYGKEELLQV

No constants are given. Whether binding was seen depends on the method and setting. Binding calls can cover weak binding; strength is not graded here.
